According to patent US20250283871A1, “COMPOSITIONS AND METHODS FOR MODULATING THE INTERACTION BETWEEN SS18-SSX FUSION ONCOPROTEIN AND NUCLEOSOMES” (Dana-Farber Cancer Institute, Inc., priority 2020, published 2025):
Where “and” joins values, the source holds several entries; their conditions need not be identical. Identical values can stand only once.

B1: HNRNPC (protein, UniProt P07910 2-306, looked up)
Heterogeneous nuclear …: ASNVTNKTDPRSMNSRVFIGNLNTLVVKKSDVEAIFSKYGKIVGCSVHKGFAFVQYVNERNARAAVAGEDGRMIAGQVLDINLAAEPKVNRGKAGVKRSAAEMYGSVTEHPSPSPLLSSSFDLDYDFQRDYYDRMYSYPARVPPPPPIARAVVPSKRQRVSGNTSRRGKSGFNSKSGQRGSSKSGKLKGDDLQAIKKELTQIKQKVDSLLENLEKIEKEQSKQAVEMKNDKSEEEQSSSSVKKDETNVKMESEGGADDSAEEGDLLDDDDNEDRGDDQLELIKDDEKEAEEGEDDRDSANGEDDS
B2: WDR43 (protein)
chain: MAAGGGGSCDPLAPAGVPCAFSPHSQAYFALASTDGHLRVWETANNRLHQEYVPSAHLSGTCTCLAWAPARLQAKESPQRKKRKSEAVGMSNQTDLLALGTAVGSILLYSTVKGELHSKLISGGHDNRVNCIQWHQDSGCLYSCSDDKHIVEWNVQTCKVKCKWKGDNSSVSSLCISPDGKMLLSAGRTIKLWVLETKEVYRHFTGHATPVSSLMFTTIRPPNESQPFDGITGLYFLSGAVHDRLLNVWQVRSENKEKSAVMSFTVTDEPVYIDLTLSENKEEPVKLAVVCRDGQVHLFEHILNGYCKKPLTSNCTIQIATPGKGKKSTPKPIPILAAGFCSDKMSLLLVYGSWFQPTIERVALNSREPHMCLVRDISNCWAPKVETAITKVRTPVMNSEAKVLVPGIPGHHAAIKPAPPQTEQVESKRKSGGNEVSIEERLGAMDIDTHKKGKEDLQTNSFPVLLTQGLESNDFEMLNKVLQTRNVNLIKKTVLRMPLHTIIPLLQELTKRLQGHPNSAVLMVQWLKCVLTVHASYLSTLPDLVPQLGTLYQLMESRVKTFQKLSHLHGKLILLITQVTASEKTKGATSPGQKAKLVYEEESSEEESDDEIADKDSEDNWDEDEEESESEKDEDVEEEDEDAEGKDEENGEDRDTASEKELNGDSDLDPENESEEE
B3: UTP3 (protein, UniProt Q9NQZ2 1-479, looked up)
Something about silencing …: MVGRSRRRGAAKWAAVRAKAGPTLTDENGDDLGLPPSPGDTSYYQDQVDDFHEARSRAALAKGWNEVQSGDEEDGEEEEEEVLALDMDDEDDEDGGNAGEEEEEENADDDGGSSVQSEAEASVDPSLSWGQRKKLYYDTDYGSKSRGRQSQQEAEEEEREEEEEAQIIQRRLAQALQEDDFGVAWVEAFAKPVPQVDEAETRVVKDLAKVSVKEKLKMLRKESPELLELIEDLKVKLTEVKDELEPLLELVEQGIIPPGKGSQYLRTKYNLYLNYCSNISFYLILKARRVPAHGHPVIERLVTYRNLINKLSVVDQKLSSEIRHLLTLKDDAVKKELIPKAKSTKPKPKSVSKTSAAACAVTDLSDDSDFDEKAKLKYYKEIEDRQKLKRKKEENSTEEQALEDQNAKRAITYQIAKNRGLTPRRKKIDRNPRVKHREKFRRAKIRRRGQVREVRKEEQRYSGELSGIRAGVKKSIKLK
B4: PWP2 (protein, UniProt Q15269 1-919, looked up)
Periodic tryptophan protein 2 …: MKFAYRFSNLLGTVYRRGNLNFTCDGNSVISPVGNRVTVFDLKNNKSDTLPLATRYNVKCVGLSPDGRLAIIVDEGGDALLVSLVCRSVLHHFHFKGSVHSVSFSPDGRKFVVTKGNIAQMYHAPGKKREFNAFVLDKTYFGPYDETTCIDWTDDSRCFVVGSKDMSTWVFGAERWDNLIYYALGGHKDAIVACFFESNSLDLYSLSQDGVLCMWQCDTPPEGLRLKPPAGWKADLLQREEEEEEEEDQEGDRETTIRGKATPAEEEKTGKVKYSRLAKYFFNKEGDFNNLTAAAFHKKSHLLVTGFASGIFHLHELPEFNLIHSLSISDQSIASVAINSSGDWIAFGCSGLGQLLVWEWQSESYVLKQQGHFNSMVALAYSPDGQYIVTGGDDGKVKVWNTLSGFCFVTFTEHSSGVTGVTFTATGYVVVTSSMDGTVRAFDLHRYRNFRTFTSPRPTQFSCVAVDASGEIVSAGAQDSFEIFVWSMQTGRLLDVLSGHEGPISGLCFNPMKSVLASASWDKTVRLWDMFDSWRTKETLALTSDALAVTFRPDGAELAVATLNSQITFWDPENAVQTGSIEGRHDLKTGRKELDKITAKHAAKGKAFTALCYSADGHSILAGGMSKFVCIYHVREQILMKRFEISCNLSLDAMEEFLNRRKMTEFGNLALIDQDAGQEDGVAIPLPGVRKGDMSSRHFKPEIRVTSLRFSPTGRCWAATTTEGLLIYSLDTRVLFDPFELDTSVTPGRVREALRQQDFTRAILMALRLNESKLVQEALEAVPRGEIEVVTSSLPELYVEKVLEFLASSFEVSRHLEFYLLWTHKLLMLHGQKLKSRAGTLLPVIQFLQKSIQRHLDDLSKLCSWNHYNMQYALAVSKQRGTKRSLDPLGSEEEAEASEDDSLHLLGGGGRDSEEEMLA
B5: NOC3L (protein, UniProt Q8WTT2 1-800, looked up)
Nucleolar complex protein 3 …: MKARRNKKQIPSFRKLIKTSKVKLENKLKNKQFKQQSTLKKYRKEQRKLRQAVKDAVSKKPIPLENPKEKRPGKRIEREEEEEEEALPLDMMDEDDLQLMKDLGQRVSFLTRDLSSSEPVHAKKRKHERIIDKYEKIPRTLQTAPEKELIHLLPIKDKSGIIPQTREKPVTDSNKDEEDQEEERELEEEIIEDPIQELTIEEHLIERKKKLQEKKMHIAALASAILSDPENNIKKLKELRSMLMEQDPDVAVTVRKLVIVSLMELFKDITPSYKIRPLTEAEKSTKTRKETQKLREFEEGLVSQYKFYLENLEQMVKDWKQRKLKKSNVVSLKAYKGLAEVAVKSLCELLVALPHFNFHNNIIVLIVPLMNDMSKLISEMCCEAVKKLFKQDKLGQASLGVIKVISGFVKGRNYEVRPEMLKTFLCLRIKEVEVKKDTEDINKPKKFMTFKEKRKSLSRMQRKWKKAEEKLERELREAEASESTEKKLKLHTETLNIVFVTYFRILKKAQRSPLLPAVLEGLAKFAHLINVEFFDDLLVVLHTLIESGDLSYQESLHCVQTAFHILSGQGDVLNIDPLKFYTHLYKTLFKLHAGATNEGVEIVLQCLDVMLTKRRKQVSQQRALAFIKRLCTLALHVLPNSSIGILATTRILMHTFPKTDLLLDSESQGSGVFLPELDEPEYCNAQNTALWELHALRRHYHPIVQRFAAHLIAGAPSEGSGALKPELSRRSATELFEAYSMAEMTFNPPVESSNPKIKGKFLQGDSFLNEDLNQLIKRYSSEVATESPLDFTKYLKTSLH
B6: UTP15 (protein, UniProt Q8TED0 2-518, looked up)
U3 small nucleolar …: AGYKPVAIQTYPILGEKITQDTLYWNNYKTPVQIKEFGAVSKVDFSPQPPYNYAVTASSRIHIYGRYSQEPIKTFSRFKDTAYCATFRQDGRLLVAGSEDGGVQLFDISGRAPLRQFEGHTKAVHTVDFTADKYHVVSGADDYTVKLWDIPNSKEILTFKEHSDYVRCGCASKLNPDLFITGSYDHTVKMFDARTSESVLSVEHGQPVESVLLFPSGGLLVSAGGRYVKVWDMLKGGQLLVSLKNHHKTVTCLCLSSSGQRLLSGSLDRKVKVYSTTSYKVVHSFDYAASILSLALAHEDETIVVGMTNGILSVKHRKSEAKKESLPRRRRPAYRTFIKGKNYMKQRDDILINRPAKKHLELYDRDLKHFRISKALDRVLDPTCTIKTPEITVSIIKELNRRGVLANALAGRDEKEISHVLNFLIRNLSQPRFAPVLINAAEIIIDIYLPVIGQSPVVDKKFLLLQGLVEKEIDYQRELLETLGMMDMLFATMRRKEGTSVLEHTSDGFPENKKIES
B7: EHMT2 (protein, UniProt Q96KQ7 2-1210, looked up)
Histone-lysine …: AAAAGAAAAAAAEGEAPAEMGALLLEKETRGATERVHGSLGDTPRSEETLPKATPDSLEPAGPSSPASVTVTVGDEGADTPVGATPLIGDESENLEGDGDLRGGRILLGHATKSFPSSPSKGGSCPSRAKMSMTGAGKSPPSVQSLAMRLLSMPGAQGAAAAGSEPPPATTSPEGQPKVHRARKTMSKPGNGQPPVPEKRPPEIQHFRMSDDVHSLGKVTSDLAKRRKLNSGGGLSEELGSARRSGEVTLTKGDPGSLEEWETVVGDDFSLYYDSYSVDERVDSDSKSEVEALTEQLSEEEEEEEEEEEEEEEEEEEEEEEEDEESGNQSDRSGSSGRRKAKKKWRKDSPWVKPSRKRRKREPPRAKEPRGVNGVGSSGPSEYMEVPLGSLELPSEGTLSPNHAGVSNDTSSLETERGFEELPLCSCRMEAPKIDRISERAGHKCMATESVDGELSGCNAAILKRETMRPSSRVALMVLCETHRARMVKHHCCPGCGYFCTAGTFLECHPDFRVAHRFHKACVSQLNGMVFCPHCGEDASEAQEVTIPRGDGVTPPAGTAAPAPPPLSQDVPGRADTSQPSARMRGHGEPRRPPCDPLADTIDSSGPSLTLPNGGCLSAVGLPLGPGREALEKALVIQESERRKKLRFHPRQLYLSVKQGELQKVILMLLDNLDPNFQSDQQSKRTPLHAAAQKGSVEICHVLLQAGANINAVDKQQRTPLMEAVVNNHLEVARYMVQRGGCVYSKEEDGSTCLHHAAKIGNLEMVSLLLSTGQVDVNAQDSGGWTPIIWAAEHKHIEVIRMLLTRGADVTLTDNEENICLHWASFTGSAAIAEVLLNARCDLHAVNYHGDTPLHIAARESYHDCVLLFLSRGANPELRNKEGDTAWDLTPERSDVWFALQLNRKLRLGVGNRAIRTEKIICRDVARGYENVPIPCVNGVDGEPCPEDYKYISENCETSTMNIDRNITHLQHCTCVDDCSSSNCLCGQLSIRCWYDKDGRLLQEFNKIEPPLIFECNQACSCWRNCKNRVVQSGIKVRLQLYRTAKMGWGVRALQTIPQGTFICEYVGELISDAEADVREDDSYLFDLDNKDGEVYCIDARYYGNISRFINHLCDPNIIPVRVFMLHQDLRFPRIAFFSSRDIRTGEELGFDYGDRFWDIKSKYFTCQCGSEKCKHSAEAIALEQSRLARLDPHPELLPELGSLPPVNT

System: BAF complex subunits and histone proteins
Assay: Mass spectrometry proteomics of purified HA-SS18 WT and HA-SS18-SSX1 complexes (Tables 5A-5E)
Design: species or system human
[1] = HA-SS18SSX1_CHR_peptides: protein identified in the HA-SS18-SSX1 purification from solubilized chromatin (CHR), HEK-293T
[2] = HA-SS18SSX1_NE_peptides: protein co-purified with HA-SS18-SSX1 BAF complexes from soluble nuclear extract (NE), HEK-293T cells
[3] = HA-SS18WT_CHR_peptides: HA-SS18 WT purification from nuclease-treated solubilized chromatin (CHR), HEK-293T, label = protein identified
[4] = HA-SS18WT_NE_peptides: HA-SS18 WT complexes purified from nuclear extract (NE), HEK-293T, label = protein identified (Gene Symbol)
[5] = HA-SS18WT_NE_peptides: proteins co-purified with HA-SS18 WT from nuclear extract (NE), HEK-293T
[6] = HA-SS18WT_CHR_peptides: protein identified in HA-SS18 WT BAF complex purification from nuclease-treated solubilized chromatin (CHR), HEK-293T
[7] = HA-SS18SSX1_NE_peptides (Table 5B), HA-SS18-SSX1 BAF complex purification from soluble nuclear extract, HEK-293T
[8] = HA-SS18SSX1 purification, NE (soluble nuclear extract) fraction, HEK-293T, peptides per identified protein

Molecule	Total (total peptides) [1]	Unique (unique peptides) [1]	Unique (peptides) [3]	Total (peptides) [3]	further results
B1	7	4	3 and 6	–	Total (HA-SS18SSX1_CHR_peptides, total peptides of the identified protein): 3; Unique (HA-SS18SSX1_CHR_peptides, unique peptides of the identified protein): 2; Total (peptides) [2]: 2; Unique (peptides) [2]: 2; Total (peptides) [4]: 2; Unique (peptides) [4]: 2; Total (peptides) [5]: 1; Unique (peptides) [5]: 1
B2	6	6	3	3	–
B3	6	6	–	–	Total (total peptides) [6]: 1; Unique (unique peptides) [6]: 1
B4	6	6	5	5	Total (peptides) [7]: 1; Unique (peptides) [7]: 1
B5	6	6	8	8	–
B6	6	6	5	5	Total (total peptides) [8]: 4; Unique (unique peptides) [8]: 4; Total (peptides) [4]: 6; Unique (peptides) [4]: 6
B7	6	6	3	4	–
